In this assay the target is T1, hTim8a^FLAG (human) (UniProt O60220).
T1 sequence: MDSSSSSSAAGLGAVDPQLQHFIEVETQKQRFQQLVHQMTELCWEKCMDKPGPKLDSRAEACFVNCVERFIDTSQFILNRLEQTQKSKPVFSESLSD
Briefly: cross-linking + affinity purification with mass spectrometry; hTim8a^FLAG and control SH-SY5Y cells grown in glucose media or shifted to galactose media for 6 hr; isolated mitochondria cross-linked with DSP, FLAG immunoprecipitation, elution with 0.2 M glycine pH 2.0, label-free quantitative mass spectrometry, n = 3.

Chains of the proteins cited; added tags and fusions are not shown.
UniProt P99999: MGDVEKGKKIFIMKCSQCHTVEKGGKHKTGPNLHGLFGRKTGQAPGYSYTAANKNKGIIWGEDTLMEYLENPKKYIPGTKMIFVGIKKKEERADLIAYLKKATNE

These are yes or no findings as the source states them, for the method shown. Binding seen in cells or lysates may run through a third protein. Here binding means that the protein was enriched with, or labelled near, the bait; the list need not be complete. Where a sequence is shown, tags or fusion partners need not be part of it.

Consider OPA1 (human (endogenous in SH-SY5Y)), for which the binding entry is listed as “binds”.
On to “cytochrome c (from UniProt P99999 1-105)”, for which the binding entry was “binds”.

B1: hTim8b (protein, UniProt Q9Y5J9 1-83)
chain: MAELGEADEAELQRLVAAEQQKAQFTAQVHHFMELCWDKCVEKPGNRLDSRTENCLSSCVDRFIDTTLAITSRFAQIVQKGGQ
Take B1: the binding entry is reported as “binds”.

B2: COA7 (protein, UniProt Q96BR5 1-231)
chain: MAGMVDFQDEEQVKSFLENMEVECNYHCYHEKDPDGCYRLVDYLEGIRKNFDEAAKVLKFNCEENQHSDSCYKLGAYYVTGKGGLTQDLKAAARCFLMACEKPGKKSIAACHNVGLLAHDGQVNEDGQPDLGKARDYYTRACDGGYTSSCFNLSAMFLQGAPGFPKDMDLACKYSMKACDLGHIWACANASRMYKLGDGVDKDEAKAEVLKNRAQQLHKEQQKGVQPLTFG
Turning to B2, the binding result was “binds”.

B3: COA6 (protein, UniProt Q5JTJ3 1-125)
chain: MGPGGPLLSPSRGFLLCKTGWHSNRLLGDCGPHTPVSTALSFIAVGMAAPSMKERQVCWGARDEYWKCLDENLEDASQCKKLRSSFESSCPQQWIKYFDKRRDYLKFKEKFEAGQFEPSETTAKS
With B3, the binding result is “binds”.

B4: hTim13 (protein, UniProt Q9Y5L4 1-95)
chain: MEGGFGSDFGGSGSGKLDPGLIMEQVKVQIAVANAQELLQRMTDKCFRKCIGKPGGSLDNSEQKCIAMCMDRYMDAWNTVSRAYNSRLQRERANM
For B4, the binding result is listed as “binds”.

Values taken from paper PMC6861005.
